PubChem BioAssay AID743121, NCATS | 2013
Shown is one part, drawn at random, of about 26,000 reagents tested. 167 of all reagents (0.63%) were called active. 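Calls are per gene from RSA p-values that are not deposited; an individual active-marked siRNA can sensitise only weakly.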 A number with no mark means an inactive call. Reagents against one gene are numbered here. Not all columns of the deposit are shown.

- Screen: 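Knock-downs that sensitise breast cancer cells to camptothecin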 (primary screen)
- System: MDA-MB-231 cells, a human breast cancer line
- Knock-down reagent: single siRNA against human genes, 20 nM siRNA (0.8 pmol per well)
- Time to read-out: 120 h (drug added 48 h after transfection, read 72 h later)
- Challenge: camptothecin 20 nM (about EC30) for 72 h; vehicle 0.1% DMSO in parallel plates
- Measurement: 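Cell viability by ATP luminescence (CellTiter-Glo) as % of non-targeting siRNA wells, and the log2 ratio of viability without drug over viability with camptothecin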
- Direction: log2 vehicle/camptothecin viability: higher = stronger sensitisation to camptothecin
- Active means: 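Active genes have an RSA gene-level p-value below 0.001, computed from the ratios of their separate siRNAs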

Knock-down of ADA (GeneID 100) #1 came out at: log2 vehicle/camptothecin viability 0.349.
Knock-down of ADA (GeneID 100) #2 resulted in: log2 vehicle/camptothecin viability -0.421.
After knock-down of ADA (GeneID 100) #3, the record shows log2 vehicle/camptothecin viability -0.269.
For GDF6 (GeneID 392255) #1, the values are log2 vehicle/camptothecin viability -0.173.
After knock-down of GDF6 (GeneID 392255) #2 the results were log2 vehicle/camptothecin viability -0.117.
Depletion of GDF6 (GeneID 392255) #3 came out at: log2 vehicle/camptothecin viability 0.0282.
Depletion of GDF6 (GeneID 392255) #4 resulted in: log2 vehicle/camptothecin viability -0.212.

Look-ups from above:
ADA (GeneID 100) #3, log2 vehicle/camptothecin viability → -0.269
GDF6 (GeneID 392255) #1, log2 vehicle/camptothecin viability = -0.173

The listing continues:
Silencing of PLCD1 (GeneID 5333) #1 came out at: log2 vehicle/camptothecin viability 0.174.
PLCD1 (GeneID 5333) #2 scored log2 vehicle/camptothecin viability -0.251.
Depletion of PLCD1 (GeneID 5333) #3 came out at: log2 vehicle/camptothecin viability -0.38.
Silencing of PLCD1 (GeneID 5333) #4 came out at: log2 vehicle/camptothecin viability -0.304.
For ZACN (GeneID 353174) #1, the values are log2 vehicle/camptothecin viability -0.16.
Depletion of ZACN (GeneID 353174) #2 came out at: log2 vehicle/camptothecin viability -0.314.
With knock-down of ZACN (GeneID 353174) #3, the screen gave log2 vehicle/camptothecin viability 0.236.
